Experimental findings from patent publication US6355611B1 (Merck & Co., Inc., priority 1999, dated 2002) are described below.

A short description of the data set: general procedure: peptide synthesis; EDC with HOAt and/or 2-HOPO, 2,4,6-collidine. Conditions: sodium salt; for crude HPLC purity / conjugation yield: conjugation step; for crude HPLC purity: HPLC area % (LCAP); for step yield: assay yield.

Turning to “[N-Glutaryl(OFm)-(4-trans-L-Hyp)]-Ala-Ser-Chg-Gln-Ser-Leu-Dox”, the “crude HPLC purity” value is recorded as 91.5 A % (piperidinium salt, free acid, run 1) and 89.7 A % (piperidinium salt, free acid, run 2). In addition, the conjugation yield is reported as 86% (corrected for purity, piperidinium salt, free acid, run 1); 90.0% (corrected for purity, piperidinium salt, free acid, run 2); 95.6% (uncorrected for purity, piperidinium salt, free acid).

For “[N-Glutaryl-(4-trans-L-Hyp)]-Ala-Ser-Chg-Gln-Ser-Leu-Dox Sodium salt”, the step yield was 85% (late stage modification step); 91% (purification step, piperidinium salt, free acid, run 1); 94% (purification step, piperidinium salt, free acid, run 2).
